# Measured values reported in publication PMC4609755.
# Amino acid sequences for entries named in this document (tags omitted). Residues count along the entry.
# UniProt Q9WV18, residues 20-960: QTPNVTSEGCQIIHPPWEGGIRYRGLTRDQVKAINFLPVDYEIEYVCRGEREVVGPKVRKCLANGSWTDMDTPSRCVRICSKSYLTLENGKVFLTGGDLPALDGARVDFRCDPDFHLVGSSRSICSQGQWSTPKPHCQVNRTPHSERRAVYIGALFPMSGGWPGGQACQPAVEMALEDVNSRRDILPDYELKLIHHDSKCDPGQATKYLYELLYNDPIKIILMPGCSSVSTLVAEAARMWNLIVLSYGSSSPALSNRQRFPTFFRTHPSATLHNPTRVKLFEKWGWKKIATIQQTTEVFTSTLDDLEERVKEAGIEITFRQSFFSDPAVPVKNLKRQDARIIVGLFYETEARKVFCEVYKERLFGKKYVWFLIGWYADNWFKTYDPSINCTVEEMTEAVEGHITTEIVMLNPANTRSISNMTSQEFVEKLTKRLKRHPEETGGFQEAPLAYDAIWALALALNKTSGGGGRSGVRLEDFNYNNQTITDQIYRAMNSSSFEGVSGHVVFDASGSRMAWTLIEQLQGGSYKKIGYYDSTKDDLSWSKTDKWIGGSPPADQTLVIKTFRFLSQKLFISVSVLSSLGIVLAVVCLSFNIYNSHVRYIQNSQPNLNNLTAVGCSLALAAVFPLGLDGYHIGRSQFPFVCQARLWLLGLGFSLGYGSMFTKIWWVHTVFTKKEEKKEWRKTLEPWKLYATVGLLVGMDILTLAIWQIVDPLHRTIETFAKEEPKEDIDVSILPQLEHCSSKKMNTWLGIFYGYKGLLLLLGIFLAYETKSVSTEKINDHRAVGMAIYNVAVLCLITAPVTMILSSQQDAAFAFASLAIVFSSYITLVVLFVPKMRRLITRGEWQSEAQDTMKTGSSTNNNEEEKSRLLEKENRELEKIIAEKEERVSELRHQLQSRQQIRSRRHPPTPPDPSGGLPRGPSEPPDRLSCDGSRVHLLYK
# UniProt P11798: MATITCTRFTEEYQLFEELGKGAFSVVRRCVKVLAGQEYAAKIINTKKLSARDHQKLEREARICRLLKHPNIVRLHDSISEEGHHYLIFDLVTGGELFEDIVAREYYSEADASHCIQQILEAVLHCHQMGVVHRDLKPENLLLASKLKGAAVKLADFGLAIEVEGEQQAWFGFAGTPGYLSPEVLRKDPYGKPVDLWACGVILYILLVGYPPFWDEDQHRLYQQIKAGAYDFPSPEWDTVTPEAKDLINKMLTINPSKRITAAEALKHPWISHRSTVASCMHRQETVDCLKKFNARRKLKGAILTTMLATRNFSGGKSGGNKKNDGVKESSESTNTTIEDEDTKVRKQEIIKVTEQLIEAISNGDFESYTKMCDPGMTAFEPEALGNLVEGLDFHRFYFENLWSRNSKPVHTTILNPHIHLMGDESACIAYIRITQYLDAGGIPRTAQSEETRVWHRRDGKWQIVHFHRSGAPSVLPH
# UniProt P28652: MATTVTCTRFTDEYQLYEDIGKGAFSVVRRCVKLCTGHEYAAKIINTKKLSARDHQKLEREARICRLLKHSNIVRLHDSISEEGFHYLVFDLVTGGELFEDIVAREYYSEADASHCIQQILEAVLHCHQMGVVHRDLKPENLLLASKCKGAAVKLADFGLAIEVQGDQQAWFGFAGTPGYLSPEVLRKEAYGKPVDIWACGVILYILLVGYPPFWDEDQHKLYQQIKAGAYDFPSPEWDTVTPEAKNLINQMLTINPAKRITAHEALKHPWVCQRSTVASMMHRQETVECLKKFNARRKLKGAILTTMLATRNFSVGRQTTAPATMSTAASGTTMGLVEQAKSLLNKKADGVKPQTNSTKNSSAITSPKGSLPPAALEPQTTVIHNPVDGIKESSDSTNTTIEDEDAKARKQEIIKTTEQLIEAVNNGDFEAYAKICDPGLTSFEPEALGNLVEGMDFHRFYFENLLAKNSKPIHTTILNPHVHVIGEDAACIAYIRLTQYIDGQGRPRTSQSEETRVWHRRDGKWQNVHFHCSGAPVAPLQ
# Biological target: GABAB1 receptor subunit (mouse (endogenous in C57BL/6J hippocampus)) (UniProt Q9WV18)
# Assay: affinity purification with mass spectrometry; immunoprecipitation of endogenous GABAB1 from total hippocampal membrane fractions (1% Triton X100, 150 mM NaCl, 1 mM EDTA, 50 mM Tris-HCl pH 8.0) with anti-GABAB1 antibody and protein G agarose, 4°C; SDS-PAGE, bands digested in gel, nano-LC-ESI-CID/ETD-MS/MS
row,binding,Substance
1,binds,Calcium/calmodulin-dependent protein kinase II alpha subunit (from UniProt P11798 1-478) (enzyme)
2,binds,Calcium/calmodulin-dependent protein kinase II beta subunit (from UniProt P28652 1-542) (enzyme)

# No constants are given. Whether binding was seen depends on the method and setting. In cells and extracts the contact can be indirect. These calls come from enrichment with a bait or labelling near it, and not all partners need be listed.
